Test results reported in patent publication US7943600B2, “Antimicrobial combination therapy” (priority 2004, dated 2011).
Entries after “also recorded” stand apart in the source; their conditions may differ. At least one structure is not confirmed: it was looked up by name or label, or the drawing left a doubt.

How the values were obtained:
Type in all cases: cell-based, E. coli
[1] = test system: MG1655/F′Tn10::kan; assay: Survival curves after cisplatin treatment; conditions: kanamycin in growth medium of overnight and log phase cultures; compared to MG1655
[2] = test system: AB1157 mutS::kan; assay: Survival curves after cisplatin treatment; conditions: presence or absence of kanamycin in growth medium
[3] = test system: MG1655/F′Tn10; assay: Survival curves (colony formation) after cisplatin treatment
Protocol: Strain GM4292 was constructed by mating exponentially growing XL1-Blue (Stratagene) with MG1655 (both at 1-2×10^8/ml at a 1:1 ratio) for 60 min and plating dilutions of the mixture on MacConkey agar-tetracycline plates. A red tetracycline-resistant, nalidixic acid-sensitive colony was selected, purified and designated GM4292. Strain GM4293 was constructed by introducing F′42 (F′lac^+) from AB 1874 into KM81 by conjugation as described above and selecting for Lac^+ Str^R colonies. A purified Lac^+ Str^R recombinant overnight culture was diluted and plated on MacConkey agar-kanamycin and following incubation overnight at 37° C., white colonies were selected. White colonies can arise either by gene conversion, where the lac^+ allele on the F′42 plasmid is converted to lacZ::Kan, or by loss of the F′lac^+. […]
MacConkey agar and LB broth were purchased from Difco. […] Cisplatin solutions were prepared by dissolution in phosphate buffered saline (PBS) at 37° C. for one hour with rotation, filtering the solution through a 0.2 μm Acrodisc filter, and determining the concentration by UV absorbance at A301 using a Beckmann DU-65 spectrophotometer. […]
Cells were grown overnight from single colonies in LB broth. […] Colonies were counted the next day after incubation at 37° C. Survival was calculated as a percentage of cells forming colonies in treated populations relative to untreated.

[4] = test system: CC104 mutY::tet; assay: Survival curves after cisplatin treatment; conditions: tetracycline applied after cisplatin exposure (LB/Tet vs LB plates)
Protocol: MacConkey agar and LB broth were purchased from Difco. LB broth contained 10 g tryptone, 5 g yeast extract, and 10 g NaCl per 1 L. All antibiotics and cisplatin (cis-diammine-dichloro-platinum(II), or CDDP) were purchased from Sigma-Aldrich. Antibiotics were used at the following final concentrations: 15 μg/ml tetracycline (Tc), 100 μg/ml ampicillin, 50 μg/ml kanamycin, 100 μg/ml streptomycin, 30 μg/ml nalidixic acid and 20 μg/ml chloramphenicol. Cisplatin solutions were prepared by dissolution in phosphate buffered saline (PBS) at 37° C. for one hour with rotation, filtering the solution through a 0.2 μm Acrodisc filter, and determining the concentration by UV absorbance at A301 using a Beckmann DU-65 spectrophotometer. Appropriate doses of cisplatin were then prepared by dilution in PBS.
Cells were grown overnight from single colonies in LB broth. The next morning, saturated overnight cultures were diluted 1:100 and grown for two hours to mid-log phase (cell density approximately 3×10^8 cells/ml). At this time, the cells were spun down, resuspended in M9 minimal salts, and treated with various concentrations of cisplatin at 37° C. for 1 hour. […] Colonies were counted the next day after incubation at 37° C. Survival was calculated as a percentage of cells forming colonies in treated populations relative to untreated.

SMILES | effect of antibiotic in growth medium on survival upon cisplatin treatment [1] | effect of antibiotic in growth medium on survival upon cisplatin treatment [2] | effect of post-treatment with tetracycline on survival ([3]; tetracycline applied after cisplatin exposure (LB/Tet vs LB plates)) | effect of washing out residual tetracycline before cisplatin treatment on survival ([3]; tetracycline-resistant cells grown in tetracycline) | effect of post-treatment with tetracycline on survival [4]
NC[C@H]1O[C@H](O[C@H]2[C@H](O)[C@@H](O[C@H]3O[C@H](CO)[C@@H](O)[C@H](N)[C@H]3O)[C@H](N)C[C@@H]2N)[C@H](O)[C@@H](O)[C@@H]1O [kanamycin] | did not affect the survival | did not produce the same degree of sensitization to cisplatin | – | – | –
CN(C)[C@@H]1C(O)=C(C(N)=O)C(=O)[C@@]2(O)C(O)=C3C(=O)c4c(O)cccc4[C@@](C)(O)[C@H]3C[C@@H]12 [tetracycline] | – | – | less sensitized; also recorded: not affected | did not improve their survival | not affected
